Assay results reported in ChEMBL document CHEMBL4732197, “Identification of novel potent HIV-1 inhibitors by exploiting the tolerant regions of the NNRTIs binding pocket” (Eur J Med Chem, 2021).

Experiment: physchem
Settings: buffer, pH 7.4

SMILES: Cc1cc(/C=C/C#N)cc(C)c1Oc1nc(NC2CCN(Cc3ccc(S(N)(=O)=O)cc3)CC2)nc2ccsc12
- solubility: < 1 µg/mL
